Assay results taken from US20160207991A1.
Results are given in words; binding and its absence hold for the method and conditions named. Some results given as binding are weak or reduced against the parent protein; the word gives no strength.

The chains behind the UniProt entries cited, without tags or fusion partners. Where a name states a change or a piece, a line headed by the entry shows the natural chain unless it says otherwise.
UniProt P08138: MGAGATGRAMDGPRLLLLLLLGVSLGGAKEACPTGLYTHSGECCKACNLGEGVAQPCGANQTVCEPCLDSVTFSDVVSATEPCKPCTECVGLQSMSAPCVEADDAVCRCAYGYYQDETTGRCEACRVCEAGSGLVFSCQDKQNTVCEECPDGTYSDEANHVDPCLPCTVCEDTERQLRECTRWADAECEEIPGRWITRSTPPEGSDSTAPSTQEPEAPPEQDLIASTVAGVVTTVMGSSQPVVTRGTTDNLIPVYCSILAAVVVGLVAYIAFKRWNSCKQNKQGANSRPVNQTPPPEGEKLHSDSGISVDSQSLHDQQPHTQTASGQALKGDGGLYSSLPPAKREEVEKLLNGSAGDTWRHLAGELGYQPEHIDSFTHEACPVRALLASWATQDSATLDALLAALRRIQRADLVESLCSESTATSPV

Target: p75NTR receptor (immobilised on the SPR flow cell) (Homo sapiens (Human)) (UniProt P08138)
Assay: SPR (Biacore T200): 20 nM BDNF injected over immobilised p75NTR [both panels]

B1: human brain-derived neurotrophic factor (BDNF) (ligand)
chain: HSDPARRGELSVCDSISEWVTAADKKTAVDMSGGTVTVLEKVPVSKGQLKQYFYETKCNPMGYTKEGCRGIDKRHWNSQCRTTQSYVRALTMDSKKRIGWRFIRIDTSCVCTLTIKRGR
- binding: binds
